The list shows a part of the results.
These targets were tested with NC1(c2ccc(-c3nc4ccn5c(=O)[nH]nc5c4cc3-c3ccccc3)cc2)CCC1 (assay: log2 fold change, soluble protein after heating vs DMSO (PISA); higher = thermal stabilisation; K562 cells, 10 uM, 30 min; active = over 0.2 and 3.5 SD of the protein, either way, in both replicates (recomputed)).
Summary of the method: (§1)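 Soluble protein was quantified by TMTpro 16plex LC-MS/MS after channel sums were equalised. It was obtained as the supernatant after 21,000xg for 90 min from pooled aliquots of K562 cells (2×10^6 cells/mL, 10 μM compound, 30 min) heated for 3 min across 48°C-58°C and extracted in PBS with 0.5% NP-40 at 4°C. Thermal stability values are relative to control samples and come from duplicates. They are given as log2 fold changes.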

Sequences of proteins named here, by UniProt entry; tags and fusion partners are left off. A change or cut given only in a name is not applied to a line headed by its entry.
UniProt Q9UHX1: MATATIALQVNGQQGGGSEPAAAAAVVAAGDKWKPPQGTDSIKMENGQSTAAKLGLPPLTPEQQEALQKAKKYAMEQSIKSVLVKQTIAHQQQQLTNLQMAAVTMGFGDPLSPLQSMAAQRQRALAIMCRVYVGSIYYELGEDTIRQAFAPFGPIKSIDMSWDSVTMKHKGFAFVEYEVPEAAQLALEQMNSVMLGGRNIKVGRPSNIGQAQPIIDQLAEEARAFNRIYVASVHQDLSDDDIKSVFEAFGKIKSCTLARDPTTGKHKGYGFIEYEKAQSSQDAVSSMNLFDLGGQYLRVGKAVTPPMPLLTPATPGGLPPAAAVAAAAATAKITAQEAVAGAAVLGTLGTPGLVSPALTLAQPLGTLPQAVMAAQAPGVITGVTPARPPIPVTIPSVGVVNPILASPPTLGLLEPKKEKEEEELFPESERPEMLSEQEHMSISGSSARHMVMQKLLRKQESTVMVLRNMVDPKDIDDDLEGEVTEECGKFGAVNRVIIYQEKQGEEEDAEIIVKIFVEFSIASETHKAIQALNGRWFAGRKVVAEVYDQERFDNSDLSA
UniProt Q03393: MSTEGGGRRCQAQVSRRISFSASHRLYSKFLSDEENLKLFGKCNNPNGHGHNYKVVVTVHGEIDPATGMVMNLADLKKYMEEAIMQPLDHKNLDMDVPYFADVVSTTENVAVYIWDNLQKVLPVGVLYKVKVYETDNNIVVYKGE
UniProt Q99952: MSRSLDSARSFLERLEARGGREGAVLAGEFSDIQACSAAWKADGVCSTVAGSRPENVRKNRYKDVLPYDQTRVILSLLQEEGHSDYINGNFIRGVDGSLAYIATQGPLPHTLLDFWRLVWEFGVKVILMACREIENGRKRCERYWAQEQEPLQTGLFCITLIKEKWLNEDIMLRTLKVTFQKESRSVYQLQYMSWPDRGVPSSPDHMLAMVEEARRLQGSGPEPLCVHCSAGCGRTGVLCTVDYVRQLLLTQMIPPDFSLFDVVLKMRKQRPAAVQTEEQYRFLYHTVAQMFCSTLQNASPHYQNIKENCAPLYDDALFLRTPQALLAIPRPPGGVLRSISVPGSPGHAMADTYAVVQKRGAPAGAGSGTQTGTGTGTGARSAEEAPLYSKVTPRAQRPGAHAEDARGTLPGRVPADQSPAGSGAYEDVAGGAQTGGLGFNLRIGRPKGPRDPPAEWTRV
UniProt P43378: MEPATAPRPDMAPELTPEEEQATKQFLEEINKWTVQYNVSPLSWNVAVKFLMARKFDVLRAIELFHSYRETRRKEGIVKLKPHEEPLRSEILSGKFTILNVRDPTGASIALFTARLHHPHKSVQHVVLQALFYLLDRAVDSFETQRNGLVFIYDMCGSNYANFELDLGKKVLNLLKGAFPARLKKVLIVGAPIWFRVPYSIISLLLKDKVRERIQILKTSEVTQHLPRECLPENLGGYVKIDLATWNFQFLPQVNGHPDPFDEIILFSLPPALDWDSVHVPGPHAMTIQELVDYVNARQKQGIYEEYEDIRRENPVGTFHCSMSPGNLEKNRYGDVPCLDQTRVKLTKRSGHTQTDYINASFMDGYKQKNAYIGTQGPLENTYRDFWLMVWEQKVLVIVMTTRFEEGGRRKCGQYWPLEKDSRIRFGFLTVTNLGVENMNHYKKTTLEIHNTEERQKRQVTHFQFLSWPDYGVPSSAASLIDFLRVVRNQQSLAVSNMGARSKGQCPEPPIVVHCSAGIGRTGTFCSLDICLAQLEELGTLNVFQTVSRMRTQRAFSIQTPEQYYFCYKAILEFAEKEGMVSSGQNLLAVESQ
UniProt Q9NYI0: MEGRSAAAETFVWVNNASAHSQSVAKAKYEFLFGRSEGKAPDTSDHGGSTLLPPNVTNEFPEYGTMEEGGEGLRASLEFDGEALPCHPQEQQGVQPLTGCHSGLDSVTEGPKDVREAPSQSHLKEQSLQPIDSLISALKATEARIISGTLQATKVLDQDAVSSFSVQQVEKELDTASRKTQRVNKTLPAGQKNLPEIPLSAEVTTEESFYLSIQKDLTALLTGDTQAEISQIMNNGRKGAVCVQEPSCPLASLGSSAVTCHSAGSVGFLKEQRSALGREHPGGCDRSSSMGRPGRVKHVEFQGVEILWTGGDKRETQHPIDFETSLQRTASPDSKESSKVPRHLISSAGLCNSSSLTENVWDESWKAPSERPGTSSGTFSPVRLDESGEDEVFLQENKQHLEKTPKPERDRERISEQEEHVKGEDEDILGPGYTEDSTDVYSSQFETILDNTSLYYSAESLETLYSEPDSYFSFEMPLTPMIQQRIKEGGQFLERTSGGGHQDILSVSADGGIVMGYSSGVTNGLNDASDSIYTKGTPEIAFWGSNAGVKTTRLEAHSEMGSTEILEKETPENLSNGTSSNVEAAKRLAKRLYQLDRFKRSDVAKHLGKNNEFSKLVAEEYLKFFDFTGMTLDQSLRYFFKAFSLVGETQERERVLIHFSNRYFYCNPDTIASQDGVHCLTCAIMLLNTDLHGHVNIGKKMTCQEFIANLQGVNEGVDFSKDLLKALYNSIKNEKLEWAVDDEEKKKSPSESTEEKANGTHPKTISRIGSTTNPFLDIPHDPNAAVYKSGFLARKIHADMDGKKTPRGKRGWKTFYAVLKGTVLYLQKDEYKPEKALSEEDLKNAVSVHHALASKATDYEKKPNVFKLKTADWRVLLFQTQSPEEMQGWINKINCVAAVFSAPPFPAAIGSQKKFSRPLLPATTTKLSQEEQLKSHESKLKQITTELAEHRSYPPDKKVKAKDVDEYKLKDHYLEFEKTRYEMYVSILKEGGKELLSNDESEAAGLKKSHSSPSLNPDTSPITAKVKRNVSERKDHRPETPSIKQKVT
UniProt Q9P2W1: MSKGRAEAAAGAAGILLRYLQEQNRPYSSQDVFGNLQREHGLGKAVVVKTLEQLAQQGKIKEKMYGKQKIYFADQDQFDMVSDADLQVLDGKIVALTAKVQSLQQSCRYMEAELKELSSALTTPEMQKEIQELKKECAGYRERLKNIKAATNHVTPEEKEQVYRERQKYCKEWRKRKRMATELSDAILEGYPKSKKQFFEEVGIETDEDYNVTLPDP
UniProt Q7Z5L2: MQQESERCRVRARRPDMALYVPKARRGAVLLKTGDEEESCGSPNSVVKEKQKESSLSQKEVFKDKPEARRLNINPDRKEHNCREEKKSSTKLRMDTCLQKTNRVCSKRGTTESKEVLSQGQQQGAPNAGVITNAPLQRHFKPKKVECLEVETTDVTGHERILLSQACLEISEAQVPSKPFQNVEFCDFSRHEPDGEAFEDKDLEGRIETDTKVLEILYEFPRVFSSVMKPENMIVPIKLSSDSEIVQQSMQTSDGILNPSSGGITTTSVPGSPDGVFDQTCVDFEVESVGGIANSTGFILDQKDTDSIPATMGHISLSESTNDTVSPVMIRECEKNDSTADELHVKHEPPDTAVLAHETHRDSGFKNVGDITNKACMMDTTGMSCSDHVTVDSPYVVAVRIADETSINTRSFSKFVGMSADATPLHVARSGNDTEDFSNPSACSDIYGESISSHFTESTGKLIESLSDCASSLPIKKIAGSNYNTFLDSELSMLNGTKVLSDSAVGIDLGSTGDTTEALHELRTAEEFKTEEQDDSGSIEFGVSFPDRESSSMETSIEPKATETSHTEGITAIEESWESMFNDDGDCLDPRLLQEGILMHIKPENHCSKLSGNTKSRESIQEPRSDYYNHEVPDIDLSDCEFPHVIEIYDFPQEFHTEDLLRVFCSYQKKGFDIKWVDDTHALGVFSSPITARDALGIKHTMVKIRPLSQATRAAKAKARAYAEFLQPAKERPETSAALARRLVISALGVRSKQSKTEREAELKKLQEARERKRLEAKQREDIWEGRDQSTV
UniProt Q9Y3T6: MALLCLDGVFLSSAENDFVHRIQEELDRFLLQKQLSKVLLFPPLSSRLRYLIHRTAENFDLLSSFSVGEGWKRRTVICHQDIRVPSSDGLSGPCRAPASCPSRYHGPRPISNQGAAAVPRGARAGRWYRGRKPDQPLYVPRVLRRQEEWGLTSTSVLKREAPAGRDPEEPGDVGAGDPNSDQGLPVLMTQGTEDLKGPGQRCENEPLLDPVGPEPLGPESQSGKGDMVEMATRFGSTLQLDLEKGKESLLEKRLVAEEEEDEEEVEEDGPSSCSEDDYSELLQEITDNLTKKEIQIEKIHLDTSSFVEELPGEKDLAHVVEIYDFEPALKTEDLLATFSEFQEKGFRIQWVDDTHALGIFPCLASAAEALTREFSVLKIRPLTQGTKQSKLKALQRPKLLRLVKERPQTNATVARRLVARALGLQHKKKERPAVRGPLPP
UniProt Q8NDX1: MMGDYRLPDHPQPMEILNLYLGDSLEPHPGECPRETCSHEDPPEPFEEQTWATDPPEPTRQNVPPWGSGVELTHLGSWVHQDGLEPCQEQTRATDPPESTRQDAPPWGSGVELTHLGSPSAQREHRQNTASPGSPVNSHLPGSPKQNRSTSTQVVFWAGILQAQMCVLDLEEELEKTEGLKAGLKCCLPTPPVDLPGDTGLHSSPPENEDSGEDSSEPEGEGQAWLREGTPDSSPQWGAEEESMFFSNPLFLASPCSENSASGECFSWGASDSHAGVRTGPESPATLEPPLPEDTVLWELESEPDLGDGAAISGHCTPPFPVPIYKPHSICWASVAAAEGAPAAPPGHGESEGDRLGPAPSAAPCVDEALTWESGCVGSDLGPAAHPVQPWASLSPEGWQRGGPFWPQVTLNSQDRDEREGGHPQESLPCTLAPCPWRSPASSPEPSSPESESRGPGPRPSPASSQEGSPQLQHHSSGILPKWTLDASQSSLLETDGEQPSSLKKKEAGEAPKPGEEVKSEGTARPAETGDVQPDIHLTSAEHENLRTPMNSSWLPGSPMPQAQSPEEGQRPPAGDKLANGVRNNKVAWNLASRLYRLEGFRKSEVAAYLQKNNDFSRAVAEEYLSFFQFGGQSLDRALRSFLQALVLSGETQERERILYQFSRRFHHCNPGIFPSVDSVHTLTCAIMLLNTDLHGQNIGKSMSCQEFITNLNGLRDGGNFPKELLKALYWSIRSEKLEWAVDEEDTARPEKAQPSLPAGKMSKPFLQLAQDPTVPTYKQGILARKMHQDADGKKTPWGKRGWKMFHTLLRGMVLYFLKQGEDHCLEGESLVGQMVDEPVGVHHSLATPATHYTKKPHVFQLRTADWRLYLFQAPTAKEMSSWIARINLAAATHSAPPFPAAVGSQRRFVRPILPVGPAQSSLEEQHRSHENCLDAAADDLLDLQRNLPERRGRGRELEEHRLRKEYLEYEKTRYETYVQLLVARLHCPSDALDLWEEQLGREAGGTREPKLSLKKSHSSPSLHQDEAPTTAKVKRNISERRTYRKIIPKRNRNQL
UniProt P35236: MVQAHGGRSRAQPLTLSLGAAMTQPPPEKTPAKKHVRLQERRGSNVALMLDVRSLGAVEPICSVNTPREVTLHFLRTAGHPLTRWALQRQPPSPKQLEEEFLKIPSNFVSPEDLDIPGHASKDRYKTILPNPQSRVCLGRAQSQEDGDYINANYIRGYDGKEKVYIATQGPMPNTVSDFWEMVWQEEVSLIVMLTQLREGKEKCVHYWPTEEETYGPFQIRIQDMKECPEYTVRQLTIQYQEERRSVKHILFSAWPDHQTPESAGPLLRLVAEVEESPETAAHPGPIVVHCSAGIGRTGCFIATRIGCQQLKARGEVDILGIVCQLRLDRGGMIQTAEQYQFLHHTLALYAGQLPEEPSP
UniProt P28065: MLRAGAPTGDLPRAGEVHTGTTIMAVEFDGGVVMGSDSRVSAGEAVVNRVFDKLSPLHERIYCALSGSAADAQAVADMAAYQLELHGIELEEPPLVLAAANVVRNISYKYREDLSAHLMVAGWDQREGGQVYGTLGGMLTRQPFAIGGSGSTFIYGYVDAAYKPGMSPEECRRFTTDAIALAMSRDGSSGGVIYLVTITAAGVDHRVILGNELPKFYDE
UniProt Q9Y606: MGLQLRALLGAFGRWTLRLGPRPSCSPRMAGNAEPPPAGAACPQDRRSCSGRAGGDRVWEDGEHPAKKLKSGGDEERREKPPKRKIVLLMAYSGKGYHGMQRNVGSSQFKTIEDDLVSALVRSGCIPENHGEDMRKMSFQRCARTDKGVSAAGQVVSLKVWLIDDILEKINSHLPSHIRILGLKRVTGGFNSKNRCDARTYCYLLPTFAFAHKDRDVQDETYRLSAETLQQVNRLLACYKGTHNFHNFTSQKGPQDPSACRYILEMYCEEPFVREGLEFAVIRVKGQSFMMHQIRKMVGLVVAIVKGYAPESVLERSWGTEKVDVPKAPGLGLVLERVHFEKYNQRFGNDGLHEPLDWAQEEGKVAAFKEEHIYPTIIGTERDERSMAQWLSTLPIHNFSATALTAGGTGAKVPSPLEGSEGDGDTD
UniProt P28074: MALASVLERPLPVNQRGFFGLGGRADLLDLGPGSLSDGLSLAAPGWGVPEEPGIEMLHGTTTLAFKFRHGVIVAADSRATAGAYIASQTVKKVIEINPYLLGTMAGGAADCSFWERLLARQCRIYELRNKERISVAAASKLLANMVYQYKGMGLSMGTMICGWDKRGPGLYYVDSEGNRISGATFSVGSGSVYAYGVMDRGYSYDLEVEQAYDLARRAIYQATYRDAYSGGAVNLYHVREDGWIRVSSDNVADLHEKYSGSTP

Row | Target | log2 fold change
1 | PSEN1 (UniProt P49768) | inactive: -0.093
2 | PUF60 isoform 2 (UniProt Q9UHX1) | inactive: -0.137
3 | PYGO2 (UniProt Q9BRQ0) | inactive: 0.04
4 | PTS (UniProt Q03393) | inactive: 0.054
5 | PTPN18 (UniProt Q99952) | inactive: 0.051
6 | PRUNE2 isoform 3 (UniProt Q8WUY3) | inactive: 0.126
7 | PSIP1 (UniProt V9GYT7) | inactive: 0.071
8 | PSMC3 (UniProt E9PLG2) | inactive: -0.077
9 | PUSL1 (UniProt Q8N0Z8) | inactive: 0.06
10 | PTPN9 (UniProt P43378) | inactive: 0.043
11 | PSD3 (UniProt Q9NYI0) | inactive: -0.14
12 | PSMC3IP (UniProt Q9P2W1) | inactive: -0.361

The targets below were run with NCC(=O)Nc1ccc(-n2nc(C(F)(F)F)cc2-c2ccc3c(ccc4ccccc43)c2)cc1 in the same assay as above.
Summary of the method: as §1

Row | Target | log2 fold change
13 | PYCR1 (UniProt J3QKT4) | inactive: -0.105
14 | PSEN1 (UniProt P49768) | inactive: 0.005
15 | PSMD8 (UniProt K7ERW6) | inactive: -0.417
16 | PTP4A3 (UniProt O75365) | inactive: -0.105
17 | PUF60 isoform 2 (UniProt Q9UHX1) | inactive: 0.21
18 | PYGO2 (UniProt Q9BRQ0) | inactive: 0.21
19 | R3HCC1L (UniProt Q7Z5L2) | inactive: 0.006
20 | R3HCC1 (UniProt Q9Y3T6) | inactive: -0.019
21 | PSD4 (UniProt Q8NDX1) | inactive: 0.257
22 | PTS (UniProt Q03393) | inactive: -0.011
23 | PSMA3 (UniProt H0YJ03) | inactive: -0.048
24 | PTPN7 isoform 3 (UniProt P35236) | inactive: 0.149
25 | PTPRS (UniProt Q13332) | inactive: -0.093
26 | PRUNE2 isoform 3 (UniProt Q8WUY3) | inactive: 0.323
27 | PSMA3 (UniProt G3V4X5) | inactive: -0.055
28 | PSMB9 (UniProt P28065) | inactive: 0.029
29 | PUS1 (UniProt Q9Y606) | inactive: -0.052
30 | PSMC3 (UniProt E9PLG2) | inactive: 0.117
31 | PSMB5 isoform 3 (UniProt P28074) | inactive: -0.397
32 | PSD3 (UniProt Q9NYI0) | inactive: -0.113
33 | PSMC3IP (UniProt Q9P2W1) | inactive: -0.038

— the supplement of paper PMC10849652
